Some results were stated once for a whole list of compounds, not compound by compound.
Test system: CAIX expressing SKRC52 cells
Assay: In vitro cytotoxicity assay (MTS)
Format: cell-based, human
Details: Condition (b): 1 h exposure, wash, then 72 h; concentrations up to 300 nM
Method: SKRC52 or A549 cells were seeded in 96-well plates in their appropriate culture medium (100 μL) at a density of 5000 cells per well and allowed to grow for 24 h. The medium was replaced with medium containing different concentrations of test substance (100 μL, 300 nM-15 pM in 1:3 dilution steps) and plates were either:
(a) incubated for 72 hours in the presence of the toxic substance, or
(b) incubated for 1 h under standard culture conditions, followed by removal of the medium containing the toxic substance, gently washing the cells fresh medium once and adding new medium (100 μL) and incubating for 72 h under culture conditions.
MTS cell viability dye (20 μL, Promega) was added, the plates were incubated for 1 h under culture conditions and the absorbance at 490 nm measured on a Spectra Max Paradigm multimode plate reader (Molecular Devices). Experiments were performed in triplicate and average cell viability calculated as measured background corrected absorbance divided by the absorbance of untreated control wells. EC50 values were determined by fitting data to the four-parameter logistic equation.

SMILES	EC50
COc1cc2cc(c1Cl)N(C)C(=O)C[C@H](OC(=O)[C@H](C)N(C)C(=O)CCSSC[C@H](NC(=O)[C@H](CC(=O)O)NC(=O)[C@H](CCCNC(=N)N)NC(=O)[C@H](CC(=O)O)NC(=O)CCCCn1cc(CCCC(=O)Nc3nnc(S(N)(=O)=O)s3)nn1)C(=O)O)[C@@]1(C)O[C@H]1[C@H](C)[C@@H]1C[C@@](O)(NC(=O)O1)[C@H](OC)/C=C/C=C(\C)C2 [Compound 9a, Targeted DM1 Conjugate]	> 300 nM
COc1cc2cc(c1Cl)N(C)C(=O)C[C@H](OC(=O)[C@H](C)N(C)C(=O)CCSSC[C@H](NC(=O)[C@H](CC(=O)O)NC(=O)[C@H](CCCNC(=N)N)NC(=O)[C@H](CC(=O)O)NC(=O)CCCCn1cc(CCCC(=O)O)nn1)C(=O)O)[C@@]1(C)O[C@H]1[C@H](C)[C@@H]1C[C@@](O)(NC(=O)O1)[C@H](OC)/C=C/C=C(\C)C2 [Compound 9b, Untargeted DM1 Conjugate]	> 300 nM

From patent US9884122B2, “Small molecule drug conjugates” (Philochem AG, priority 2014, dated 2018)
